This is a selection; strong and weak results do not stand in their true shares.
Target: furin, P09958
Experiment: furin cleavage Z-score vs untreated control; higher = more cleavage, active = 3.5 or more, inactive = 1 or less, 8 variable residues between constant flanks
In short: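 To give the cleavage Z-score, log read counts were set against furin-free reactions, lowess-adjusted and scaled by median absolute deviation. These counts came from PCR adapter-tagged, sequenced DNA released when purified furin cut 8-mer peptides fused to a cDNA oligonucleotide and held on magnetic beads by their N-terminus. Digests were 0.01 ml, 1:10 enzyme:substrate, in 50 mM HEPES pH 7.5 with CaCl2 and NaCl, for 7.5, 15 or 30 min.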

Sequences of proteins named here, by UniProt entry; tags and fusion partners are left off.
furin, P09958, UniProt P09958, whole entry: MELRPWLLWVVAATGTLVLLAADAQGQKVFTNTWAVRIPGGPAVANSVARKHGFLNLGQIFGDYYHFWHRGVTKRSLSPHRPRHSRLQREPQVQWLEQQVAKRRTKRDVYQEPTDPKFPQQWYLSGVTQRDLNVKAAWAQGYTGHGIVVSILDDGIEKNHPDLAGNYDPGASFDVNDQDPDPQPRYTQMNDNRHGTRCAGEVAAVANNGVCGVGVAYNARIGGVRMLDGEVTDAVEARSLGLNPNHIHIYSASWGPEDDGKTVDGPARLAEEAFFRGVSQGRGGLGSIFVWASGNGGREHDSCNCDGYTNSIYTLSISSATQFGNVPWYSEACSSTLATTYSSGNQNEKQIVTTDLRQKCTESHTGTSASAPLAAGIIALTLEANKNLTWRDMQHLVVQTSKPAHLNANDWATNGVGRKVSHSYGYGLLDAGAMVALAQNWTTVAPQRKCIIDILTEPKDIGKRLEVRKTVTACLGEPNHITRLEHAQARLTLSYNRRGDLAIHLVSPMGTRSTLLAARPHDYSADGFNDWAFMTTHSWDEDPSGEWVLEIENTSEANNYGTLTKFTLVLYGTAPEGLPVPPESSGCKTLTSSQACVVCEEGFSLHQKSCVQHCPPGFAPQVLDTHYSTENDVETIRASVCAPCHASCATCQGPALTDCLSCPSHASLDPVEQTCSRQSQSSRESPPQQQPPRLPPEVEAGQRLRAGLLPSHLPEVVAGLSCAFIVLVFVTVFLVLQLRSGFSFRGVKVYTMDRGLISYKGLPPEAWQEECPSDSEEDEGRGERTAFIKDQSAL

Sequence	furin cleavage Z-score (7.5 min)	furin cleavage Z-score (15 min)	furin cleavage Z-score (30 min)
CARQKRSINLAGNASASA [FS-2587]	active: 7.01	active: 6.9	active: 10.1
CAAGQRLRRDAGNASASA [FS-395]	active: 12	active: 10.2	active: 8.42
CASWLGNIIMAGNASASA [HC1574]	inactive: -0.174	inactive: -0.173	inactive: 0.459
CARQKRSIVVAGNASASA [FS-2507]	active: 7.83	active: 9.33	active: 8.84
CAEVVHSTWVAGNASASA [HC129]	inactive: -0.835	inactive: 0.0271	inactive: -0.684
CARCRRNKRIAGNASASA [FS-1649]	active: 4.5	active: 6.14	active: 4.22
CAAVSRTQRRAGNASASA [HC901]	1.01	3.13	3.08
CAAVVTSTWVAGNASASA [HC2143]	1.02	2.25	1.5
CAGCTTPCSGAGNASASA [HC1956]	inactive: -0.873	inactive: -0.658	inactive: -0.0577
CAAPARWPRSAGNASASA [FS-974]	active: 8.41	active: 5.86	active: 6.73
CAGGARRQRGAGNASASA [FS-1327]	1.44	1.28	1.75
CALRRLHQWIAGNASASA [HC1139]	1.13	1.26	2.5
CAWVCCSMSYAGNASASA [HC1988]	inactive: 0.172	inactive: 0.44	1.05
CANVRGGRDAAGNASASA [HC593]	1.4	1.66	1.07
CAGARRLRRFAGNASASA [FS-1196]	1.71	2.31	2.32
CARKRRAPHGAGNASASA [FS-2493]	active: 4.63	active: 5.64	active: 5.6
CAMLEVVTSTAGNASASA [HC2266]	1.49	1.72	2.65
CALRSRRRRPAGNASASA [FS-1600]	1.5	3.06	1.85
CAWGPTDPRRAGNASASA [HC214]	2.36	1.81	1.68
CARKAREVCDAGNASASA [FS-1900]	active: 5.27	active: 5.4	active: 4.27

Two successive entries already listed, for reference:
Sequence	furin cleavage Z-score (7.5 min)	furin cleavage Z-score (15 min)	furin cleavage Z-score (30 min)
CARQKRSIVVAGNASASA [FS-2507]	active: 7.83	active: 9.33	active: 8.84
CAEVVHSTWVAGNASASA [HC129]	inactive: -0.835	inactive: 0.0271	inactive: -0.684

Next part

Sequence	furin cleavage Z-score (7.5 min)	furin cleavage Z-score (15 min)	furin cleavage Z-score (30 min)
CARRVRCSGAAGNASASA [FS-2802]	inactive: -0.409	inactive: 0.495	inactive: 0.927
CAVKPRPARSAGNASASA [FS-1499]	active: 10.9	active: 11.1	active: 7.25
CARRRRAVLPAGNASASA [FS-2372]	2.18	1.33	3.45
CARLLRDADDAGNASASA [FS-2278]	inactive: -0.832	inactive: -0.574	inactive: -0.464
CADLGRHYRSAGNASASA [FS-983]	1.95	3.05	3.2
CAMEECSMHLAGNASASA [HC1726]	3.14	1.13	2.11
CAMEECSQHMAGNASASA [HC1766]	1.43	1.54	1.41
CARLLRSLTHAGNASASA [FS-2993]			active: 4.05
CARPGRFDRQAGNASASA [FS-862]	1.79	2.78	2.17
CARLRRGLPAAGNASASA [FS-2575]	3.32	2.56	3.41
CAKEMEECSQAGNASASA [HC1794]	inactive: 0.752	inactive: 0.717	inactive: 0.689
CARRRRHPDDAGNASASA [FS-3063]	3.1	active: 4.81	active: 3.91
CARHRRAAGGAGNASASA [FS-2144]	active: 5.47	active: 4.69	active: 5.6
CARQERSTKEAGNASASA [FS-2062]	1.5	2.03	2.49
CARRKRHISVAGNASASA [FS-3262]	active: 5.85	active: 5.59	active: 7.18
CARRKRQVRRAGNASASA [FS-2370]	active: 6.85	active: 8.4	active: 6.39
CARSARAAAAAGNASASA [FS-2456]	2.48	2.76	2.63
CARHHRFPRAAGNASASA [FS-1063]	active: 12.2	active: 10.7	active: 8.91
CARMKREITTAGNASASA [FS-2047]	active: 9.07	active: 9.89	active: 7.88
